Measured values taken from paper PMC10564737, “Structure-based design of a phosphotyrosine-masked covalent ligand targeting the E3 ligase SOCS2” (Nature Communications, 2023).
Values joined by “and” are separate entries in the source; they are usually repeats but may differ in a detail not shown here. Identical values can stand only once. The source gives many values for each of these; only a part stands here.

Amino acid sequences for entries named in this document (tags omitted). Residues count along the entry.
UniProt O14508, 32-198: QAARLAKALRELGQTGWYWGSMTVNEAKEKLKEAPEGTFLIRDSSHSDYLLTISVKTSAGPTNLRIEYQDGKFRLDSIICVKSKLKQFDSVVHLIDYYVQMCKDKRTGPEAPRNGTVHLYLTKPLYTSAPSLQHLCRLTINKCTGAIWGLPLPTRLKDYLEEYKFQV

Target: T1, SBC2 (Homo sapiens, UniProt O14508)
T1 construct: SOCS2 (amino acids 32–198); His6 (N, cleaved yes); made in house; host or cells: E. coli BL21(DE3)
Experiment: Covalent fluorescence polarization (FP) probe displacement assay
Type: binding
Source text: With the specific covalent modification of Cys111 established, we decided to fully characterize MN551 as a covalent SOCS2 inhibitor. […] (Fig. 2g, h, Supplementary Fig. 9). Due to the covalent nature of the competing inhibitor, a time-dependent reduction in the fraction of protein-bound probe is observed. […] This value illustrates reasonable specificity for a covalent inhibitor, with nonetheless scope for future optimization. In addition to characterizing the kinetic covalency parameters, we have also assessed the stability of the MN551 by monitoring its reactivity (half-life >70 min) with reduced glutathione (GSH) (Supplementary Fig. 10)[35].
To monitor the SBC2-ligand binding kinetics we designed a fluorescein-labeled small-molecule probe - compound 26. The fluorescence polarization (anisotropy) of a threefold serial dilution of 50 µM SBC2 in 10 nM of the probe in 100 mM HEPES pH 7.5, 50 mM NaCl, 0.5 mM TCEP, 2% DMSO was measured to determine the KL (Supplementary Fig. 9A) (BMG Labtech PHERAstar – firmware v1.33). Protein titration and the curves were fitted using GraphPad Prism 9, using one-site fitting models to determine the probe binding constant, KL. Samples were run in triplicate in 384 well plates, using a total volume per well of 16 μL. The bound fraction of the probe is measure using the equation:1 Fb=Af−A/Af−Ab Where,
A time-dependent reduction in probe anisotropy were measured for a 2-fold serial dilution of […] compound MN551 in 10 nM probe +300 μM SBC2. To determine the initial reversible binding affinity, the initial bound fraction of the probe at time = 0, Fbo (the y-intercept in Fb v/s Time plot, Supplementary Fig. 9B) was plotted against MN551 concentration, and the obtained IC50 is then converted to Ki (Supplementary Fig. 9C)[17]. The slope from Fb versus time graph when divided by Fbo gives rate of covalency, kobs. A plot of kobs v/s MN551 concentration using Michaelis–Menten model of GraphPad Prism 9, provides the parameters kinact (maximum potential rate of inactivation) and KI (concentration of MN551 at which kobs = kinact/2) (Supplementary Fig. 9D, E).
The observed first-order rate constant, kobs is related to KI and kinact by the equation:2 kobs=kinactI/KI+I
At [I]«[KI] the above equation is converted to3 […]
The slope from the plot of kobs against concentration of MN551 gives us the covalent efficiency parameter kinact/KI (Supp Fig. 9F)[30],[33].

[1] = MN551 12.599 nM; Cycle 8 (35 min)
[2] = MN551 12.599 nM; Cycle 9 (40 min)
[3] = MN551 12.599 nM; Cycle 10 (45 min)
[4] = MN551 12.599 nM; Cycle 12 (55 min); n=1
[5] = MN551 12.599 nM; Cycle 13 (60 min); n=1
[6] = MN551 12.599 nM; Cycle 14 (65 min); n=1
[7] = MN551 12.599 nM; Cycle 15 (70 min); n=1
[8] = MN551 17.6386 nM, Cycle 8 (35 min)
[9] = MN551 17.6386 nM, Cycle 9 (40 min)
[10] = MN551 17.6386 nM, Cycle 10 (45 min)
[11] = MN551 17.6386 nM, Cycle 11 (50 min)
[12] = MN551 17.6386 nM, Cycle 15 (70 min), n=1
[13] = MN551 17.6386 nM, Cycle 16 (75 min), n=1
[14] = MN551 17.6386 nM, Cycle 17 (80 min), n=1
[15] = MN551 17.6386 nM; Cycle 6 (25 min)
[16] = MN551 17.6386 nM; Cycle 7 (30 min)
[17] = MN551 17.6386 nM; Cycle 8 (35 min)
[18] = MN551 17.6386 nM; Cycle 9 (40 min)
[19] = MN551 17.6386 nM; Cycle 10 (45 min)
[20] = MN551 17.6386 nM; Cycle 12 (55 min); n=1
[21] = MN551 17.6386 nM; Cycle 13 (60 min); n=1
[22] = MN551 17.6386 nM; Cycle 14 (65 min); n=1
[23] = MN551 17.6386 nM; Cycle 15 (70 min); n=1
[24] = MN551 17.6386 nM; Cycle 16 (75 min); n=1
[25] = MN551 24.4141 nM, Cycle 8 (35 min)
[26] = MN551 24.4141 nM, Cycle 9 (40 min)
[27] = MN551 24.4141 nM, Cycle 10 (45 min)

O=C(CCl)Nc1cccc(CNC(=O)[C@H](Cc2ccc(OP(=O)(O)O)cc2)NC(=O)Cc2ccc(F)cc2)c1 [MN551]
Anisotropy [1]: 281 and 279.2 and 278.1
Anisotropy data 485,520,520 [1]: 273.2 and 268.6 and 268.9
Fb [1]: 0.9273 and 0.9804 and 1.0324 and 1.043 and 0.9991 and 1.024
Anisotropy [2]: 280.4 and 278 and 277.6
Anisotropy data 485,520,520 [2]: 274.9 and 267.4 and 269.4
Fb [2]: 0.942 and 1.014 and 1.038 and 1.045 and 0.983 and 1.015
Anisotropy [3]: 281.9 and 276.8 and 276.4
Anisotropy data 485,520,520 [3]: 272.1 and 266.8 and 270.3
Fb [3]: 0.9586 and 0.979 and 1.052 and 1.051 and 0.9824 and 1.003
Anisotropy (MN551 12.599 nM; Cycle 11 (50 min); n=1): 271.5 and 266.2 and 266.8
Anisotropy (MN551 12.599 nM; Cycle 12 (55 min)): 278.4 and 276.3 and 274.6
Anisotropy [4]: 270.3 and 265 and 268.4
Anisotropy based on Raw Data (485) [4]: 271.2 and 270.7 and 268.1
Anisotropy [5]: 268.9 and 264.1 and 266.9
Anisotropy based on Raw Data (485) [5]: 270.2 and 269.7 and 268.3
Anisotropy [6]: 269.7 and 262.2 and 264.7
Anisotropy based on Raw Data (485) [6]: 268.8 and 269.2 and 268.6
Anisotropy [7]: 270 and 262.2 and 263.7
Anisotropy based on Raw Data (485) [7]: 267.5 and 265 and 263.8
Anisotropy data 485,520,520 (MN551 12.599 nM; Cycle 19 (90 min); n=1): 274.9 and 271 and 271.4
Anisotropy data 485,520,520 (MN551 12.599 nM; Cycle 20 (95 min); n=1): 272.2 and 271.2 and 270
Fb (MN551 17.6386 nM, Cycle 7 (30 min)): 0.9432 and 0.9544 and 0.9619
Anisotropy based on Raw Data (485) [8]: 276.3 and 273.4 and 273.1
Fb [8]: 0.9267 and 0.9481 and 0.9419
Anisotropy based on Raw Data (485) [9]: 273.6 and 274.5 and 270
Fb [9]: 0.9011 and 0.9496 and 0.9499
Anisotropy based on Raw Data (485) [10]: 274.3 and 271.7 and 270.8
Fb [10]: 0.925 and 0.9511 and 0.9718
Anisotropy based on Raw Data (485) [11]: 274.7 and 271.2 and 270.6
Fb [11]: 0.9333 and 0.9243 and 0.9768
Anisotropy (MN551 17.6386 nM, Cycle 13 (60 min), n=1): 281.7 and 277.6 and 275.8
Anisotropy (MN551 17.6386 nM, Cycle 14 (65 min), n=1): 280.8 and 275.7 and 274
Anisotropy [12]: 281 and 274 and 274.8
Normalised anisotropy (0 nM MN551 = 1, free probe = 0) [12]: 1.0809 and 0.9943 and 1.013
Anisotropy [13]: 280.1 and 275.6 and 273.8
Normalised anisotropy (0 nM MN551 = 1, free probe = 0) [13]: 1.043 and 1.026 and 1.003
Anisotropy [14]: 277.6 and 273.4 and 274.2
Normalised anisotropy (0 nM MN551 = 1, free probe = 0) [14]: 1.046 and 0.9971 and 1.036
Fb, fraction bound (MN551 17.6386 nM; Cycle 3 (10 min)): 1.072 and 1.02 and 1.025
Fb, fraction bound (MN551 17.6386 nM; Cycle 4 (15 min)): 1.083 and 1.022 and 1.06
Fb, fraction bound (MN551 17.6386 nM; Cycle 5 (20 min)): 1.053 and 1.021 and 1.052
Anisotropy data 485,520,520 [15]: 278.5 and 272.3 and 275.8
Fb [15]: 0.9485 and 0.9804 and 1.036
Fb, fraction bound [15]: 1.039 and 1.012 and 1.02
Anisotropy data 485,520,520 [16]: 276.9 and 272.1 and 272.6
Fb [16]: 0.9844 and 0.9814 and 1.0283
Fb, fraction bound [16]: 1.038 and 1.003 and 1.033
Anisotropy [17]: 284.7 and 280.2 and 281
Anisotropy data 485,520,520 [17]: 275.9 and 271.7 and 272.3
Fb [17]: 0.9751 and 0.9892 and 1.068 and 1.078 and 1.008 and 1.053
Anisotropy [18]: 283.9 and 280.3 and 280.1
Anisotropy data 485,520,520 [18]: 272.9 and 270.4 and 271.6
Fb [18]: 0.9603 and 1.02 and 1.029 and 1.078 and 1.005 and 1.039
Anisotropy [19]: 282.5 and 279.3 and 278.2
Anisotropy data 485,520,520 [19]: 271.9 and 267.8 and 272.4
Fb [19]: 0.9913 and 0.987 and 1.066 and 1.0566 and 1.006 and 1.02
Anisotropy (MN551 17.6386 nM; Cycle 11 (50 min); n=1): 272.7 and 267.2 and 271.7
Anisotropy [20]: 273 and 266.9 and 270.4
Anisotropy based on Raw Data (485) [20]: 273.4 and 271.6 and 267.8
Anisotropy [21]: 271.5 and 263.7 and 266.8
Anisotropy based on Raw Data (485) [21]: 272.7 and 270.5 and 269.5
Anisotropy [22]: 271.6 and 263.6 and 267.8
Anisotropy based on Raw Data (485) [22]: 273.6 and 269.8 and 267.5
Anisotropy [23]: 270.9 and 265 and 268.1
Anisotropy based on Raw Data (485) [23]: 273 and 269.5 and 267.5
Anisotropy [24]: 269.7 and 261 and 265.8
Anisotropy based on Raw Data (485) [24]: 268.8 and 268.3 and 264.8
Anisotropy data 485,520,520 (MN551 17.6386 nM; Cycle 19 (90 min); n=1): 279.6 and 271 and 272.7
Anisotropy data 485,520,520 (MN551 17.6386 nM; Cycle 20 (95 min); n=1): 275.6 and 272 and 272.6
Fb (MN551 24.4141 nM, Cycle 7 (30 min)): 0.8913 and 0.9456 and 0.9838
Anisotropy based on Raw Data (485) [25]: 282.3 and 281 and 280.6
Fb [25]: 0.8909 and 0.9733 and 0.9792
Anisotropy based on Raw Data (485) [26]: 281.1 and 280.1 and 278.6
Fb [26]: 0.8729 and 0.9828 and 0.9742
Anisotropy based on Raw Data (485) [27]: 279.7 and 279.2 and 278.1
Fb [27]: 0.8604 and 0.9623 and 0.9864
Anisotropy based on Raw Data (485) (MN551 24.4141 nM, Cycle 11 (50 min)): 279.7 and 280.2 and 277.8
Anisotropy (MN551 24.4141 nM, Cycle 13 (60 min), n=1): 279.2 and 278.9 and 278.1
Anisotropy (MN551 24.4141 nM, Cycle 14 (65 min), n=1): 279.8 and 278.8
Anisotropy (MN551 24.4141 nM, Cycle 15 (70 min), n=1): 278.6 and 279.7 and 276.3
